These results are taken from US20080287283A1, “Catalyst body and methods” (priority 2007, published 2008).

The nature of the series: Nitrogen oxide SCR conversion activity of catalyst bodies versus temperature.

For `O=S(=O)([O-])[O-].O=S(=O)([O-])[O-].[Fe+2].[NH4+].[NH4+]` [ferrous ammonium sulfate, reference compound], the “NOx conversion greater than iron nitrate” value (Example 1, FIG. 1, ZSM-5, at any temperature, about 175 to about 650° C.) was 10-20%. Where the note is “Example 2, FIG. 2, iron precursor on β zeolite, about 4% iron, wash coat on cordierite honeycomb”, the “NOx conversion at 625° C.” value is “about 30%”. The “light-off at 70% conversion, faster than ferrous gluconate” value (Example 2, FIG. 2, β zeolite) was “about 25 °C”.
